PubChem BioAssay AID1224830 – NIAID, 2016

Screen: 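Host factors that control LPS-induced TNF expression in human macrophages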 (primary screen)
System: human THP-1 monocytic leukaemia cells, TNF dual-luciferase reporter clone, PMA-differentiated to macrophage-like cells
Reagent: siRNA pool against human genes, 50 nM
Duration: LPS for 4 h, given about 3 days after siRNA transfection
Treatment: bacterial LPS (TLR4 ligand), 10 ng/ml
Measurement: 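Ratio of firefly to renilla light, scaled to the plate median and expressed as a robust z-score per replicate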
Direction: TNF reporter robust z-score: higher = stronger TNF reporter response to LPS
Call rule: 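a well is active when its z-score exceeds 2.8 or falls below -1.5; control wells carry no call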
The whole screen tested about 18,000 reagents; this is a random part of them. About 2,900 of all reagents (16%) were called active. 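Calls are made per well; low scores hint the gene aids the LPS response, high scores that it dampens it.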 Repeated entries: four replicate wells of each siRNA pool.

With knock-down of CHMP6, the record shows TNF reporter robust z-score -0.73; inactive.
For CHMP6 the deposit lists TNF reporter robust z-score -0.05; inactive.
After knock-down of CHMP6, the record shows TNF reporter robust z-score -0.93; inactive.
For CHMP6, the values are TNF reporter robust z-score 0.24; inactive.
For GRM4, the values are TNF reporter robust z-score 0.7; inactive.
For GRM4, the entry reads TNF reporter robust z-score 1.29; inactive.
GRM4 showed TNF reporter robust z-score 0.17; inactive.
After knock-down of GRM4, the record shows TNF reporter robust z-score 0.54; inactive.
Depletion of TBCA came out at: TNF reporter robust z-score -1.61; active.
Against TBCA the deposit lists TNF reporter robust z-score -0.77; inactive.
For TBCA, the values are TNF reporter robust z-score -0.83; inactive.
TBCA showed TNF reporter robust z-score -1.25; inactive.
With knock-down of DTNB, the record shows TNF reporter robust z-score -1.45; inactive.
After knock-down of DTNB the results were TNF reporter robust z-score -1.72; active.
With knock-down of DTNB, the record shows TNF reporter robust z-score -1.32; inactive.
After knock-down of DTNB, the record shows TNF reporter robust z-score -1.71; active.
Depletion of CC2D1B gave: TNF reporter robust z-score 0.1; inactive.
Knock-down of CC2D1B came out at: TNF reporter robust z-score 0.46; inactive.
For CC2D1B the deposit lists TNF reporter robust z-score -0.13; inactive.
Silencing of CC2D1B gave: TNF reporter robust z-score 0.39; inactive.
MIP showed TNF reporter robust z-score 0.12; inactive.
Knock-down of MIP gave: TNF reporter robust z-score 0.55; inactive.
Against MIP, the entry reads TNF reporter robust z-score 0.04; inactive.
Knock-down of MIP came out at: TNF reporter robust z-score 0.41; inactive.
SPINT4 gave TNF reporter robust z-score 0.53; inactive.
After knock-down of SPINT4 the results were TNF reporter robust z-score 0.5; inactive.
Silencing of SPINT4 resulted in: TNF reporter robust z-score 0.02; inactive.
Knock-down of SPINT4 resulted in: TNF reporter robust z-score 0.72; inactive.
For MTF1, the values are TNF reporter robust z-score -0.52; inactive.
After knock-down of MTF1, the record shows TNF reporter robust z-score 0.17; inactive.
MTF1 scored TNF reporter robust z-score 0.37; inactive.
Depletion of MTF1 came out at: TNF reporter robust z-score 0.82; inactive.
Knock-down of PLXNB1 gave: TNF reporter robust z-score -0.72; inactive.
Knock-down of PLXNB1 gave: TNF reporter robust z-score -0.48; inactive.
Knock-down of PLXNB1 gave: TNF reporter robust z-score -0.94; inactive.
Silencing of PLXNB1 resulted in: TNF reporter robust z-score 0.15; inactive.
Depletion of SNX16 came out at: TNF reporter robust z-score -0.73; inactive.
For SNX16 the deposit lists TNF reporter robust z-score 0.48; inactive.
SNX16 gave TNF reporter robust z-score 0; inactive.
SNX16 gave TNF reporter robust z-score 0.36; inactive.
With knock-down of MOB3A the results were TNF reporter robust z-score -0.91; inactive.
Against MOB3A, the entry reads TNF reporter robust z-score -0.61; inactive.
MOB3A scored TNF reporter robust z-score -1.37; inactive.
Against MOB3A, the entry reads TNF reporter robust z-score -1.56; active.
After knock-down of NR0B2 the results were TNF reporter robust z-score -1.72; active.
NR0B2 scored TNF reporter robust z-score -1.12; inactive.
Against NR0B2, the entry reads TNF reporter robust z-score -1.04; inactive.
NR0B2 showed TNF reporter robust z-score -0.56; inactive.
Silencing of ASTE1 resulted in: TNF reporter robust z-score 1.36; inactive.
With knock-down of ASTE1, the screen gave TNF reporter robust z-score 0.88; inactive.
With knock-down of ASTE1, the record shows TNF reporter robust z-score -0.87; inactive.
Against ASTE1, the values are TNF reporter robust z-score -0.66; inactive.
Knock-down of POLR2H came out at: TNF reporter robust z-score -1.65; active.
Depletion of POLR2H gave: TNF reporter robust z-score -0.42; inactive.
Against POLR2H the deposit lists TNF reporter robust z-score 0.02; inactive.
POLR2H gave TNF reporter robust z-score 0.18; inactive.
For MRFAP1L1, the entry reads TNF reporter robust z-score 0.25; inactive.
With knock-down of MRFAP1L1, the record shows TNF reporter robust z-score -0.08; inactive.
Knock-down of MRFAP1L1 resulted in: TNF reporter robust z-score 0.34; inactive.
For MRFAP1L1 the deposit lists TNF reporter robust z-score -0.06; inactive.

A portion taken from the entries so far:
CHMP6: TNF reporter robust z-score = -0.93; Call = inactive
CHMP6: TNF reporter robust z-score = 0.24; Call = inactive
GRM4: TNF reporter robust z-score = 0.7; Call = inactive
GRM4: TNF reporter robust z-score = 1.29; Call = inactive
GRM4: TNF reporter robust z-score = 0.17; Call = inactive
GRM4: TNF reporter robust z-score = 0.54; Call = inactive
